No constants are given. Whether binding was seen depends on the method and setting. In cells and extracts the contact can be indirect. Here binding means that the protein was enriched with, or labelled near, the bait; the list need not be complete.
target: α5 integrin (mouse (endogenous in mouse lung microvascular ECs)); assay: affinity purification with mass spectrometry; endogenous α5 integrin immunoprecipitated (Dynabeads Protein G with anti-α5 integrin antibody, 4 °C) from mouse microvascular EC lysates: WT/Ctrl, and siNRP1, siNRP2, siNRP1/2, sip120RasGAP ECs; α5.EC KO lysates as control for non-specific binding; LFQ-DIA-MS, Spectronaut, p < 0.01 cutoff; three independent experiments

binding | Binder
binds | Dynein light chain-3 (protein, UniProt P56387 1-116) MEGYQRPCDEVGFNADEAHNIVKECVDGVLGGNDYNENNINQWTASIVEQSITHLVKLGKAYKYIVTCAVVQRSPYGFHTASSCFWDTTSDGTCTIRWENRTMNCIVNVFAVAIVL
binds | RasGTPase-activating protein-binding protein-2 (protein, UniProt P97379 1-482) MVMEKPSPLLVGREFVRQYYTLLNKAPEYLHRFYGRNSSYVHGGVDASGKPQEAVYGQNDIHHKVLSLNFSECHTKIRHVDAHATLSDGVVVQVMGLLSNSGQPERKFMQTFVLAPEGSVPNKFYVHNDMFRYEDEVFGDSEPELDEESEDEVEEEQEDRQPSPEPVQENANSAYYDAHPVTNGIEEPLEESSHEPEPEPESETKTEELKPQVEEKHLEELEEKSATPPPAEPASLPQEPPKAFSWASVTSKNLPPSGTVSSSGIPPHVKAPVSQPRVDAKPEVQSQPPRVREQRPRERPGFPPRGPRPGRGDMEQNDSDNRRIIRYPDSHQLFVGNLPHDIDENELKEFFMSFGNVVELRINTKGVGGKLPNFGFVVFDDSEPVQRILIAKPIMFRGEVRLNVEEKKTRAARERETRGGGDDRRDIRRNDRGPGGPRGIVGGGMMRDRDGRGPPPRGGMTQKLGSGRGTGQMEGRFTGQRR
binds | RasGTPase-activating protein-like-2 (protein, UniProt E9PW37 1-1286) MELSPSSGGAAEALSWPEMFTGLESDSPLPPEDLDAVVPVSGAVAGGMLDRILLESVCQQQSWVRVFDVKGPPTHRLSCGQSPYTETTSWERKYCILTDSQLVLLNKEKEMPVEGQDQQTDSTKGRCLRRTVSVPSEGQFPEYPQEGTTKLEVPAERSPRRRSISGTSTSEKPNSMDTANTSPFKVPGFFSKRLKGSIKRTKSQSKLDRNTSFRLPSLRNADDRSRGLPKLKESRSHESLLSPCSAVECLDLGRGEPVSVKPLHSSILGQDFCFEVTYLSGSKCFSCSSASERDKWMENLRRTVQPNKDNCRRAENVLRLWIIEAKDLAPKKKYFCELCLDDTLFARTTSKTKADNIFWGEHFEFYSLPPLHSITVHIYKDVEKKKKKDKNNYVGLVNIPTASVTGRQFVEKWYPVSTPTPNKGKTGGPSIRIKSRFQTITILPMEQYKEFAEFITSNYTMLCSVLEPVISVRNKEELACALVHILQSTGRAKDFLTDLVMSEVDRCGEHDVLIFRENTIATKSIEEYLKLVGQQYLHDALGEFIKALYESDENCEVDPSKCSSSELMDHQSNLKMCCELAFCKIINSYCVFPRELKEVFASWKQQCLNRGKQDISERLISASLFLRFLCPAIMSPSLFNLMQEYPDDRTSRTLTLIAKVIQNLANFAKFGNKEEYMAFMNDFLEHEWGGMKRFLLEISNPDTISNTPGFDGYIDLGRELSVLHSLLWEVVSQLDKGENSFLQATVAKLGPLPRVLADITKSLTNPTPIQQQLRRFAEHSSSPNVSGSLSSGLQRICEDPTDSDLHKLKSPSQDNTDSYFRGKTLLLVQQASSQSMTYSEKDEKENSLPNGRSISLMDLQDTHAAQAEHASVMLDVPMRLAGSQLSITQVASIKQLRETQSTPQSAPQVRRPLHPALNQPGSLQPLSFQNPVYHLNNPVPAMPKASADSSLENLSTASSRSQSNSEDFKLSGPSNSSMEDFTKRSSHSEDFSRRHTVPDRHIPLALPRQNSTGQSQIRKLDHSGLGARAKAPPSLPHSASLRSTGSMSVASAALMAEPVQNGSRSRQQSSSSRESPVPKVRAIQRQQTQQVQSPVDSATMSPVERTAAWVLNNGQYEEDVEETEQNQDEAKHAEKYEQEITKLKERLRVSSRRLEEYERRLLVQEQQMQKLLLEYKARLEDSEERLRRQQEEKDSQMKSIISRLMAVEEELKKDHAEMQAVIDAKQKIIDAQEKRIVSLDSANTRLMSALTQVKERYSMQVRNGISPTNPTKLSITENGEFKNSSC
binds | Kif22 (protein, UniProt Q3V300 1-660) MSLRAKTCPQRREMASATSGPGRCVSKGGLGRRPPLARVRVAVRLRPFMDGETEAKELPCVRAIDSCSLEVANWKKYQETLKYQFDAFYGEKSTQQEVYVGSVQPILRHLLEGQNASVLAYGPTGAGKTHTMLGSPEQPGVIPRALMDLLQLAREESAEGRPWDVSVAMSYLEIYQEKVLDLLDPASGDLVIREDCRGNILIPGLTQKPITSFSDFEQHFLPASRNRAVGATRLNQRSSRSHAVLLVKVDQRERLTPFRQREGKLYLIDLAGSEDNRRTGNQGIRLKESGAINTSLFVLGKVVDALNQGLPRIPYRDSKLTRLLQDSLGGSAHSILIANIAPERRFYQDTISALNFTARSKEVINRPFTNESLQPHALAPVKLSQKELLGPSEAKKAKGPEEESTGSPESTAAPASASQKLSLLQKLSNMDPAMLENLLSMERLLGSQGSQGTPLLNTPKRERMVLMKTVEEKNLEIERLKMKQKELEAKVLAQEAPDPREKENTPTILQPPASYSGTVAKPLKKAVVMPLQRIQKQRESSNQIQLLKKGPKRKLEPSPESEAVEKDEDYWEVQISPELLAHGRKKLLDLLNEGSARELRSLQRIGQKKAQLIVGWRELHGPFSEVEDLEQVEGISGKQVESFLKANLLSLAASQHSGPS
binds | Rab21 (protein, UniProt P35282 1-222) MAAAGGGAAAAAGRAYSFKVVLLGEGCVGKTSLVLRYCENKFNDKHITTLQASFLTKKLNIGGKRVNLAIWDTAGQERFHALGPIYYRDSNGAILVYDVTDEDSFQKVKNWVKELRKMLGNEICLCIVGNKIDLEKERHVSIQEAESYAESVGAKHYHTSAKQNKGIEELFLDLCKRMIETAQVDERAKGNGSSQAGAARRGVQIIDDEPQAQSSGGCCSSG
binds | Kif2c (protein, UniProt Q922S8 1-721) MESLHARLFPGLSINIQRSNGLIHPANISTVNVEKSCVSVEWIEGGTTKGKEIDIDDVAAINPELLQLLPLRPKDSLPLQENVTVPKQKRKSVNSKIPALKEGLRSRSTRMSTVSEVRIPAQENEMEVELPVPTNSRKQFAIPSHPRASCSTVTELPLLMVSEEAEEQAHSTRSTSSANPGNSVRRKSCIVKEMEKMKNKREEKRAQNSELRIKRAQEYDSSFPNWEFARMIKEFRVTMECSPLTVTDPIEEHRICVCVRKRPLNKQELAKKEIDVISVPSKCLLLVHEPKLKVDLTKYLENQAFCFDFAFDETASNEVVYRFTARPLVQTIFEGGKATCFAYGQTGSGKTHTMGGDLSGKSQNASKGIYAMASRDVFLLKNQPRYRNLNLEVYVTFFEIYNGKVFDLLNKKAKLRVLEDSRQQVQVVGLQEYLVTCADDVIKMINMGSACRTSGQTFANSNSSRSHACFQILLRTKGRLHGKFSLVDLAGNERGADTSSADRQTRMEGAEINKSLLALKECIRALGQNKAHTPFRESKLTQVLRDSFIGENSRTCMIAMISPGISSCEYTLNTLRYADRVKELSPHSGPSGEQPVQMETEVMEASSNGTSLTGNEEEELSSQMSSFNEAMTQIRELEERALEELREIIQQGPNWLELSEMTDQPDYDLETFVNKAESALTQQAKQAKHFSALREVIKALRLAMQLEEQASKQINSKKRHQ
binds | Ras-interacting protein-1 (protein, UniProt Q3U0S6 1-961) MLSGERKEGGSPRFGKLHLPVGLWINSPRKQLAKLGRRWPSAASVKSSSSDTGSRSSEPLPPPPPPPHVELRRVGAVKAAGGASGSRAKRISQLFRGSGAGGAGGPGTPGGAQRWASEKKLPELAAGVAPEPPLPTRAAVPPGVLKIFASGLASGANYKSVLATERSTARELVAEALERYGLTGGRGAGDSGCVDAYALCDALGRPAVGVGGGEWRAEHLRVLADAERPLLVQDLWRARPGWARRFELRGREEARRLEQEAFGAADADGTNAPSWRTQKNRSRAASGGAALASPGPGSGSGTPTGSGGKERSENLSLRRSVSELSLQGRRRRQQERRQQALSMAPGAADAQMVPTDPGDFDQLTQCLIQAPSNRPYFLLLQGYQDAQDFVVYVMTREQHVFGRGGPSSSRGGSPAPYVDTFLNAPDILPRHCTVRAGPEPPAMVRPSRGAPVTHNGCLLLREAELHPGDLLGLGEHFLFMYKDPRSGGSGPARPSWLPARPGAAPPGPGWAFSCRLCGRGLQERGEALAAYLDGREPVLRFRPREEEALLGEIVRAAASGAGDLPPLGPATLLALCVQHSARELELGHLPRLLGRLARLIKEAVWEKIKEIGDRQPENHPEGVPEVPLTPEAVSVELRPLILWMANTTELLSFVQEKVLEMEKEADQEGLSSDPQLCNDLELCDEALALLDEVIMCTFQQSVYYLTKTLYSTLPALLDSNPFTAGAELPGPGAELEAMPPGLRPTLGVFQAALELTSQCELHPDLVSQTFGYLFFFSNASLLNSLMERGQGRPFYQWSRAVQIRTNLDLVLDWLQGAGLGDIATEFFRKLSIAVNLLCVPRTSLLKASWSSLRTDYPTLTPAQLHHLLSHYQLGPGRGPPPAWDPPPAERDAVDTGDIFESFSSHPPLILPLGSSRLRLTGPVTDDALHRELRRLRRLLWDLEQQELPANHRHGPPVASTP
binds | Centrosomal protein-63 (protein, UniProt Q3UPP8 1-700) MEALLEGIQNRGHSGGFLTSCEAELQELMKQIDIMVAHKKSEWEGQTHALETCLDIRDRELKALRSQLDMKHKEVGILHQQIEEHEKTKQEMAMEYKEELLKLQEELSRLKRSYEKLQKKQLREFRGNTKSFREDRSEIERLTGKIEEFRQKSLDWEKQRLIYQQQVSSLEAQRKALAEQSEIIQAQLANRKQKLESVELSSQSEIQHLNSKLERAKDTICANELEIERLNIRVNDLMGTNMTILQDHRQKEEKLRESEKLLEALQEEQKELKASLQSQETFILEAKMQEKLQTTLKAVGTQQSVERPLEDCQKERKYSSPGQGVLDNVLSQLDFSHSSEELLQAEVTRLEGSLESVSATCKQLSQELMEKYEELKRMEGHNNEYRTEIKKLKEQILQADQTYSSALEGMKMEISQLTRELHQRDITIASAKCSSSDMEKQLKAEMQKAEEKAVEHKEILSQLESLKLENHRLSETVMKLELGLHEAKEISLADLQENYIEALNKLVSENQQLQKDLMSTKSELEHATNMCKKKDGEIFNPAHSRAAGFKNAELKPIHGQHRHDGIKTEQYKTGHHSPRGQTLDSIDPVARGPSPLSSHISPGSSTVSLPSNFLFEAHSLPSVLDINDVNFSDSLSDCMNDQEEFVSSGSLPTSPLGSIATRFLEEEELRSHHILERLDAHIEELKRESEKTVRQFTALV
binds | Interleukin-12 receptor β1 (receptor, UniProt Q60837 20-738) QLGASGPGDGCCVEKTSFPEGASGSPLGPRNLSCYRVSKTDYECSWQYDGPEDNVSHVLWCCFVPPNHTHTGQERCRYFSSGPDRTVQFWEQDGIPVLSKVNFWVESRLGNRTMKSQKISQYLYNWTKTTPPLGHIKVSQSHRQLRMDWNVSEEAGAEVQFRRRMPTTNWTLGDCGPQVNSGSGVLGDIRGSMSESCLCPSENMAQEIQIRRRRRLSSGAPGGPWSDWSMPVCVPPEVLPQAKIKFLVEPLNQGGRRRLTMQGQSPQLAVPEGCRGRPGAQVKKHLVLVRMLSCRCQAQTSKTVPLGKKLNLSGATYDLNVLAKTRFGRSTIQKWHLPAQELTETRALNVSVGGNMTSMQWAAQAPGTTYCLEWQPWFQHRNHTHCTLIVPEEEDPAKMVTHSWSSKPTLEQEECYRITVFASKNPKNPMLWATVLSSYYFGGNASRAGTPRHVSVRNQTGDSVSVEWTASQLSTCPGVLTQYVVRCEAEDGAWESEWLVPPTKTQVTLDGLRSRVMYKVQVRADTARLPGAWSHPQRFSFEVQISRLSIIFASLGSFASVLLVGSLGYIGLNRAAWHLCPPLPTPCGSTAVEFPGSQGKQAWQWCNPEDFPEVLYPRDALVVEMPGDRGDGTESPQAAPECALDTRRPLETQRQRQVQALSEARRLGLAREDCPRGDLAHVTLPLLLGGVTQGASVLDDLWRTHKTAEPGPPTLGQEA
